In the supplement of paper PMC10849652 one finds log2 fold change data, which are given here for 40 targets.

Amino acid sequences for entries named in this document (tags omitted). A change or cut given only in a name is not applied to a line headed by its entry.
UniProt Q9Y4X0: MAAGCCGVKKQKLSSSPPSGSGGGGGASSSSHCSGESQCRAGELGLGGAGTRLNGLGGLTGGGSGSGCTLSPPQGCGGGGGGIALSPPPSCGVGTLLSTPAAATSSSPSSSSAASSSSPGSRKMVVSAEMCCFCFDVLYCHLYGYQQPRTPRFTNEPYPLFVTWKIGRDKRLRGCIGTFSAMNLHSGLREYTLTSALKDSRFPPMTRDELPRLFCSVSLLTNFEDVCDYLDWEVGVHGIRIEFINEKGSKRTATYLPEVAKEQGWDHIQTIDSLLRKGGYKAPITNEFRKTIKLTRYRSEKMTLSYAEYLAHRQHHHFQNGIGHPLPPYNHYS
UniProt Q9BXX2: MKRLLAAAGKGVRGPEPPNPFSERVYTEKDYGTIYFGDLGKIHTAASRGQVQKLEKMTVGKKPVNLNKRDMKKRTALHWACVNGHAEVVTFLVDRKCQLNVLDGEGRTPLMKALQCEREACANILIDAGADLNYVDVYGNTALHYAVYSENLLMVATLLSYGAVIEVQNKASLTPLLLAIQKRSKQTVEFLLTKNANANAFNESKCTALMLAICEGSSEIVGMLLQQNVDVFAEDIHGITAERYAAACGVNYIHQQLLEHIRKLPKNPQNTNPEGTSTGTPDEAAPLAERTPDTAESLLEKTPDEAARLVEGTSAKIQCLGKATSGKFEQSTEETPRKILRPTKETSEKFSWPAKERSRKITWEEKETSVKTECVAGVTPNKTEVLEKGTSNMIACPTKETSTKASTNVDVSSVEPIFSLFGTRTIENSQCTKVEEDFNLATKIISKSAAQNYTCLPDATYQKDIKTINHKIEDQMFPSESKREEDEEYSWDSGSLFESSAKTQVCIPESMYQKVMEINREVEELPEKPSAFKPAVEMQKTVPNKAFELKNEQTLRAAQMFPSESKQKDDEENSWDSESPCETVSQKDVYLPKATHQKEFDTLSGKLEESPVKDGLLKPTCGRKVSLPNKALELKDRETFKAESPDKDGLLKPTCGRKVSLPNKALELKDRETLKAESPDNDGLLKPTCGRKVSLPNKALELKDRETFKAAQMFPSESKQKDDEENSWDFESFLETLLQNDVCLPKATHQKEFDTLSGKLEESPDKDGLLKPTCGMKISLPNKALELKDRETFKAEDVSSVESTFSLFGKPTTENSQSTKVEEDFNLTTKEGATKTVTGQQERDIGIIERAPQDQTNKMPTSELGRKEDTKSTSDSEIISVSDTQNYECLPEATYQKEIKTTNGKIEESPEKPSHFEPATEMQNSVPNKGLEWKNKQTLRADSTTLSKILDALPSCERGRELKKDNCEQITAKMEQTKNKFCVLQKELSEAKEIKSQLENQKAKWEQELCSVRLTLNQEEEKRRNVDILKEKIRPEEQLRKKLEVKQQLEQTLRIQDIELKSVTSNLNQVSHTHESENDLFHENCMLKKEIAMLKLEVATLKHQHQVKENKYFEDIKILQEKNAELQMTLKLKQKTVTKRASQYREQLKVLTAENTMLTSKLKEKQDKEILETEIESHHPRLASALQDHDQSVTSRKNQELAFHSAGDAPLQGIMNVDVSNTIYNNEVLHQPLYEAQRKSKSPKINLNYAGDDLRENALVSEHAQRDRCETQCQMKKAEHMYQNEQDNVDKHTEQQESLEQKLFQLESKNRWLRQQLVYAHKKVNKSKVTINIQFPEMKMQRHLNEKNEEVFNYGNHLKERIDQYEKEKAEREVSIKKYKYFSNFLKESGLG
UniProt Q5VTE6: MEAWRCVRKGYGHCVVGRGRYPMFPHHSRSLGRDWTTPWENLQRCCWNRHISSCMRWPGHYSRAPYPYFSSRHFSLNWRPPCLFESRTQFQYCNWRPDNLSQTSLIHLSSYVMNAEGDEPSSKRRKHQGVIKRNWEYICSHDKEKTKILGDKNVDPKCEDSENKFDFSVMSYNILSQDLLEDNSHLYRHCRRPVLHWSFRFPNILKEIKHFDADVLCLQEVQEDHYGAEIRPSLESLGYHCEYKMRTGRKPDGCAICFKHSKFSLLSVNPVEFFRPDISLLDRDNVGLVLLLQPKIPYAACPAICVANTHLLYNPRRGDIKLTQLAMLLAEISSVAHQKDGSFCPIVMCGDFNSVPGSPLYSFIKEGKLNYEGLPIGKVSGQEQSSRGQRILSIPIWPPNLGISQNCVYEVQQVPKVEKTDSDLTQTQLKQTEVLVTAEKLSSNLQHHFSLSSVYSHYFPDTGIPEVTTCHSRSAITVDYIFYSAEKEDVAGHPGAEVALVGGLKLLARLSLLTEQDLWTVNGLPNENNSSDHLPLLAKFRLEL
UniProt P39687: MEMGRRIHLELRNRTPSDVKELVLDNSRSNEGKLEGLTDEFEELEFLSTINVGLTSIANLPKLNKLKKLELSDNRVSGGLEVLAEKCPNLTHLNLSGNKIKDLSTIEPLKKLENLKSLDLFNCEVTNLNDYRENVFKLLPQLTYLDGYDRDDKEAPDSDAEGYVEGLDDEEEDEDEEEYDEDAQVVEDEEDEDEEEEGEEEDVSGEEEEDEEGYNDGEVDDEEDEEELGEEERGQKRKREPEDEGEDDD
UniProt Q02252: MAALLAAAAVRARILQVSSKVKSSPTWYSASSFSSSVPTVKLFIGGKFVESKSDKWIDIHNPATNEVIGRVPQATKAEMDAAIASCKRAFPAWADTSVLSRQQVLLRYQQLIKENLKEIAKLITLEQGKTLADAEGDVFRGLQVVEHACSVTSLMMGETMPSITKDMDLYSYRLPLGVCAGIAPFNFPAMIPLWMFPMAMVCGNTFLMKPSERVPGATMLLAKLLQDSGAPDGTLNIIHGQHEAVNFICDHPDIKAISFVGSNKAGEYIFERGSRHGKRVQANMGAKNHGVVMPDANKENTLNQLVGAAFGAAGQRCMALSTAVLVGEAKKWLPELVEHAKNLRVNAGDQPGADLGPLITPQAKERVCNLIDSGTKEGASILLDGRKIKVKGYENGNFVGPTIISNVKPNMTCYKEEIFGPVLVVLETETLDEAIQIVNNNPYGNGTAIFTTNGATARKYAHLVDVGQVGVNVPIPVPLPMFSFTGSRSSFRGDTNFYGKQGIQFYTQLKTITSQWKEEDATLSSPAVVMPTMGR
UniProt Q8IWZ3: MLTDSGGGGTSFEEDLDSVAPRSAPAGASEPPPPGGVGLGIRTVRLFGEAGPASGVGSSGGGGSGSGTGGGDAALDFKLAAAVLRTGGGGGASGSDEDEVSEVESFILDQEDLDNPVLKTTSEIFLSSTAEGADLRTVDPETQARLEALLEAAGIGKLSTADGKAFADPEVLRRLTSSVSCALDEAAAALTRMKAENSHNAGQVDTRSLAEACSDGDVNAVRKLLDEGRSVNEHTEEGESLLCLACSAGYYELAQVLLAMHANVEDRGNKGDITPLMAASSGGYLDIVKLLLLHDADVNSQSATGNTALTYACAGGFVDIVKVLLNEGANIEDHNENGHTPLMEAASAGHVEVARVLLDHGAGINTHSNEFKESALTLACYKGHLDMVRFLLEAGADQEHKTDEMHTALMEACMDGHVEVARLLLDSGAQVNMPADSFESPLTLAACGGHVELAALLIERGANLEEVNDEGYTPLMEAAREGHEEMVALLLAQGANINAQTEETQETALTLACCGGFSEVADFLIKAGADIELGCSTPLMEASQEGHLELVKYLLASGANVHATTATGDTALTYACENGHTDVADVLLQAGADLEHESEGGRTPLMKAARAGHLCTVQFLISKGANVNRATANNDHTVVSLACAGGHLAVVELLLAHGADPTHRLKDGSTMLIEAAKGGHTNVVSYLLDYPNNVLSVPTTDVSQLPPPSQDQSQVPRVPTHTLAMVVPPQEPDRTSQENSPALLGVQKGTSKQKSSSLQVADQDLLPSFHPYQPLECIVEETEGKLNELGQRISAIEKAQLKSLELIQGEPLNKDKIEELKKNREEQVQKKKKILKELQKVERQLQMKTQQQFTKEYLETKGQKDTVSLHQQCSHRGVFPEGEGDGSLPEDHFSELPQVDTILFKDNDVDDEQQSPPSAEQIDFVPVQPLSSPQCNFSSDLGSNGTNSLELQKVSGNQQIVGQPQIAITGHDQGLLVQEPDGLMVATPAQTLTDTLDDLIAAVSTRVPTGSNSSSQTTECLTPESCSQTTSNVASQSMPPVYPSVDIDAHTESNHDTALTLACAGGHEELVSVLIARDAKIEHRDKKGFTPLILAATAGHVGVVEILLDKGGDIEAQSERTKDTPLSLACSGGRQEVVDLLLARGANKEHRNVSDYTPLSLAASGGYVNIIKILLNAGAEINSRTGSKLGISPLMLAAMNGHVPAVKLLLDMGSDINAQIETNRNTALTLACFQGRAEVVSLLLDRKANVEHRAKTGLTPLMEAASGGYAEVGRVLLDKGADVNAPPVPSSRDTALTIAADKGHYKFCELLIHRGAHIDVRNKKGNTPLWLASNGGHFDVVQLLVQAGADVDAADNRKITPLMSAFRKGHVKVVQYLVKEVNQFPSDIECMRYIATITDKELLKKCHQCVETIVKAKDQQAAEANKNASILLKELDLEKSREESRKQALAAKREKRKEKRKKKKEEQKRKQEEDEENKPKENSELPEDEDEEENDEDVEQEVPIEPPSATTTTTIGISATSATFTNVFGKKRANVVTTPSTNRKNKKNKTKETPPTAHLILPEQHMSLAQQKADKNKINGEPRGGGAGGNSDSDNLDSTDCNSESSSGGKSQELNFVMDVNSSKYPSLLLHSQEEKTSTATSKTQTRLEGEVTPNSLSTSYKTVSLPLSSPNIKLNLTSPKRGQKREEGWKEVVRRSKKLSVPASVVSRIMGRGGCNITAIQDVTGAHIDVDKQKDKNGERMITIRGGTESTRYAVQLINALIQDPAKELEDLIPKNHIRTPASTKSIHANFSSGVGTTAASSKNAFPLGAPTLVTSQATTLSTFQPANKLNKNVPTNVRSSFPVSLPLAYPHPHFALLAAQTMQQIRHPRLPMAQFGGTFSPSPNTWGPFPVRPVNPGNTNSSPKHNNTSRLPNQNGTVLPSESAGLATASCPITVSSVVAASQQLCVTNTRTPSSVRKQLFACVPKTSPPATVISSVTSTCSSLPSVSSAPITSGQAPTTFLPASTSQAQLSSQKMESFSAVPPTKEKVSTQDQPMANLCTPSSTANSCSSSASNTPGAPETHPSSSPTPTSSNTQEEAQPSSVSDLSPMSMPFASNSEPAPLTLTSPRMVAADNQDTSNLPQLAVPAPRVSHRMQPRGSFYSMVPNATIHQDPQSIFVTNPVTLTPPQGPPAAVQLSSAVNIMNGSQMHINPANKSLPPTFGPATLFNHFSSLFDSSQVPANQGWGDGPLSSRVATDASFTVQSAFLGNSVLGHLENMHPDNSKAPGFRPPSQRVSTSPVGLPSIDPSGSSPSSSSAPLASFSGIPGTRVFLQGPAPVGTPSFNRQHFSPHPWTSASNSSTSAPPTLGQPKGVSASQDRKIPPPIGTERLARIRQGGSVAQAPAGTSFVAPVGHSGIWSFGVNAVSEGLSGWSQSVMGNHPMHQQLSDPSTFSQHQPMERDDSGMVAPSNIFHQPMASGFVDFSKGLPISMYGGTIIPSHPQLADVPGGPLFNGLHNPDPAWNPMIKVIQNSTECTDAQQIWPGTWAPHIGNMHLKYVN
UniProt P13716: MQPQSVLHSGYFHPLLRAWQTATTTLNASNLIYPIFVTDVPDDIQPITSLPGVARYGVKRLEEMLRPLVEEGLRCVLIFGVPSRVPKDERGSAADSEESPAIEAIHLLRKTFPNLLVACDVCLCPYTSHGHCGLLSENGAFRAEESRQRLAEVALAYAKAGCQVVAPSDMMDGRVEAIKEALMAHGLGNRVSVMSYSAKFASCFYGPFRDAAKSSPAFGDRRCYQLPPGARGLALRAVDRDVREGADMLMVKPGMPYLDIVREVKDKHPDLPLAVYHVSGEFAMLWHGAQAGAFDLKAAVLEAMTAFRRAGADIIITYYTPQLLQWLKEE
UniProt P53680: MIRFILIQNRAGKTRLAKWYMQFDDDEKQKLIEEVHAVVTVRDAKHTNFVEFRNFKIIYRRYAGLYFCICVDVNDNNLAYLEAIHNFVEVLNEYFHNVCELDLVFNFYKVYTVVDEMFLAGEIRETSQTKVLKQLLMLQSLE
UniProt P30837: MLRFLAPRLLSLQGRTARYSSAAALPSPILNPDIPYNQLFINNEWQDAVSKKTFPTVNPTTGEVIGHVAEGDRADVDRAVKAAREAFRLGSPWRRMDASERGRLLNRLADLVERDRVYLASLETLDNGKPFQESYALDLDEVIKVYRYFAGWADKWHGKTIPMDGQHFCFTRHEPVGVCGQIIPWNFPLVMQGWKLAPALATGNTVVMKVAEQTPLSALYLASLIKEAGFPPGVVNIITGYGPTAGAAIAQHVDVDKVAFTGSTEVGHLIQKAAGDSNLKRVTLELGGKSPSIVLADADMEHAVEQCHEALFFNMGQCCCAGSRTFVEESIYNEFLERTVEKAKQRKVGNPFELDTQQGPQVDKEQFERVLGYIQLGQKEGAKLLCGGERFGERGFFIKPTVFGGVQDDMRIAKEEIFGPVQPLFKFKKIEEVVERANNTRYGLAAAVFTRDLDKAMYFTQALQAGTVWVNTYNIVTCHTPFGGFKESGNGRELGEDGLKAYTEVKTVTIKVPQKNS

Some of the results follow.

Compound in the first assay: O=C(O)c1ccc2c(c1)nc(Nc1cccc(Cl)c1)c1ccncc12 [silmitasertib]
The assay can be described thus: log2 fold change, soluble protein after heating vs DMSO (PISA); higher = thermal stabilisation; K562 lysate, 10 uM; active = over 0.2 and 3.5 SD of the protein, either way, in both replicates (recomputed). An outline of the steps: (§1)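 K562 pellets were dounce-homogenised in PBS pH 7.4 with 1 mM MgCl2, and the crude extract at 1 mg/mL protein was treated with 10 μM compound for 30 min. Aliquots were heated for 3 min across 48°C-58°C, pooled, and brought to 0.5% NP-40 at 4°C; soluble protein was the supernatant after 21,000xg for 90 min. Soluble protein was quantified by TMTpro 16plex LC-MS/MS with channel sums equalised, and reported as log2 fold change in thermal stability against DMSO controls, with values from duplicates.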
Take ALKBH1 (UniProt Q13686): the log2 fold change was inactive: 0.135.
Turning to AP3B2 isoform 4 (UniProt Q13367), the log2 fold change is inactive: -0.022.
ANXA1 (UniProt P04083): the log2 fold change was inactive: -0.007.
On to AMMECR1 (UniProt Q9Y4X0), for which the log2 fold change was inactive: 0.003.
Still for that read-out and setting: with ANKRD17 (UniProt O75179) the figure was inactive: 0.026; with ANKRD30B (UniProt Q9BXX2), inactive: 0.047; with ANGEL2 (UniProt Q5VTE6), inactive: -0.001.
Turning to ALKBH8 isoform 4 (UniProt Q96BT7), the log2 fold change is inactive: -0.094.
Turning to ANKRD49 (UniProt Q8WVL7), the log2 fold change was inactive: -0.049.
For the target ALG6 (UniProt Q9Y672), the log2 fold change is inactive: -0.013.
As to AMFR (UniProt Q9UKV5), the log2 fold change is inactive: 0.058.
The same measure, in the same setting: with AP1G2 (UniProt O75843) the figure was inactive: -0.03.
ANP32A (UniProt P39687): the log2 fold change is inactive: 0.063.
For the target ALDOC (UniProt P09972), the log2 fold change was inactive: 0.004.
Consider ANKLE2 (UniProt Q86XL3), for which the log2 fold change was inactive: -0.023.
In the case of ANK1 isoform 14 (UniProt P16157), the log2 fold change is inactive: 0.022.
In the case of ANKZF1 (UniProt Q9H8Y5), the log2 fold change is inactive: 0.008.
On the same count and under the same terms, with AP3D1 isoform 5 (UniProt O14617) the figure was inactive: -0.003; with ALDH2 (UniProt P05091), inactive: 0.009.
Turning to AP2A2 isoform 2 (UniProt O94973), the log2 fold change was inactive: 0.035.
ALDH6A1 (UniProt Q02252): the log2 fold change was inactive: 0.042.
The same measure, in the same setting: then ALDOA (UniProt P04075), with inactive: -0.01; and AP3M2 (UniProt P53677), with inactive: -0.084.
Still for that read-out and setting: with ALKBH6 isoform 2 (UniProt Q3KRA9) the figure was inactive: -0.024; with ALKBH4 (UniProt Q9NXW9), inactive: -0.032; with ALKBH3 (UniProt Q96Q83), inactive: -0.054.
Turning to AP1G1 isoform 2 (UniProt O43747), the log2 fold change is inactive: 0.023.
Regarding ANPEP (UniProt P15144), the log2 fold change is inactive: -0.008.
The same measure, in the same setting: then ANKHD1 isoform 6 (UniProt Q8IWZ3), with inactive: 0.025; and ALG1 (UniProt Q9BT22), with inactive: 0.038.
As for ANKRD27 (UniProt Q96NW4), the log2 fold change is inactive: -0.025.
As for AKT2 (UniProt P31751), the log2 fold change is inactive: 0.011.
Same read-out and setting: with ANLN (UniProt Q9NQW6) the figure was inactive: -0.011; with AP4E1 (UniProt Q9UPM8), inactive: 0.055.
Consider ALAD (UniProt P13716), for which the log2 fold change is inactive: -0.024.
For the target AP2S1 (UniProt P53680), the log2 fold change is inactive: 0.033.
ANKRD13D isoform 3 (UniProt Q6ZTN6): the log2 fold change is inactive: -0.118.
Regarding ANXA6 (UniProt P08133), the log2 fold change is inactive: 0.018.
With ALDH1B1 (UniProt P30837), the log2 fold change was inactive: -0.051.
The same measure, in the same setting: then ANGPTL4 (UniProt M0R3A2), with inactive: -0.147.

Compound in the next assay: O=C1NC(=O)C(c2cnc3ccccn23)=C1c1cn2c3c(cc(F)cc13)CN(C(=O)N1CCCCC1)CC2
The assay is described as above. An outline of the steps:
as §1
In the case of AP3B2 isoform 4 (UniProt Q13367), the log2 fold change was inactive: 0.02.
The same measure, in the same setting: with ANXA1 (UniProt P04083) the figure was inactive: -0.031.
AMMECR1 (UniProt Q9Y4X0): the log2 fold change was inactive: -0.016.
Consider ANKRD17 (UniProt O75179), for which the log2 fold change was inactive: -0.001.
With ANGEL2 (UniProt Q5VTE6), the log2 fold change was inactive: 0.044.
On to ALKBH8 isoform 4 (UniProt Q96BT7), for which the log2 fold change was inactive: -0.053.
As to ANKRD49 (UniProt Q8WVL7), the log2 fold change is inactive: -0.011.
ALG6 (UniProt Q9Y672): the log2 fold change was inactive: 0.031.
For AMFR (UniProt Q9UKV5), the log2 fold change was inactive: 0.001.
Take AP1G2 (UniProt O75843): the log2 fold change is inactive: 0.008.
Same read-out and setting: then ANP32A (UniProt P39687), with inactive: -0.027; and ALDOC (UniProt P09972), with inactive: -0.01; and ANKLE2 (UniProt Q86XL3), with inactive: -0.085.
As for ANK1 isoform 14 (UniProt P16157), the log2 fold change was inactive: 0.025.
For ANKZF1 (UniProt Q9H8Y5), the log2 fold change is inactive: 0.002.
Consider AP3D1 isoform 5 (UniProt O14617), for which the log2 fold change was inactive: 0.012.
Take ALDH2 (UniProt P05091): the log2 fold change was inactive: 0.019.
Same read-out and setting: with AP2A2 isoform 2 (UniProt O94973) the figure was inactive: -0.02; with ALDH6A1 (UniProt Q02252), inactive: 0.096.
For the target ALDOA (UniProt P04075), the log2 fold change is inactive: -0.01.
Turning to ALKBH6 isoform 2 (UniProt Q3KRA9), the log2 fold change was inactive: 0.006.
On the same count and under the same terms, with ALKBH4 (UniProt Q9NXW9) the figure was inactive: -0.088; with ALKBH3 (UniProt Q96Q83), inactive: 0.003.
Still for that read-out and setting: then AP1G1 isoform 2 (UniProt O43747), with inactive: -0.012; and ANPEP (UniProt P15144), with inactive: -0.014; and ANKHD1 isoform 6 (UniProt Q8IWZ3), with inactive: 0.017.
As for ALG1 (UniProt Q9BT22), the log2 fold change is inactive: -0.068.
Consider ANKRD27 (UniProt Q96NW4), for which the log2 fold change was inactive: 0.022.
On to AKT2 (UniProt P31751), for which the log2 fold change was inactive: -0.019.
Regarding ANLN (UniProt Q9NQW6), the log2 fold change is inactive: -0.009.
Same read-out and setting: then AP4E1 (UniProt Q9UPM8), with inactive: 0.013; and ALAD (UniProt P13716), with inactive: 0.
With AP2S1 (UniProt P53680), the log2 fold change is inactive: -0.018.
In the case of ANKRD13D isoform 3 (UniProt Q6ZTN6), the log2 fold change was inactive: -0.076.
Take ANXA6 (UniProt P08133): the log2 fold change was inactive: -0.024.
Regarding ALDH1B1 (UniProt P30837), the log2 fold change is inactive: -0.022.
